Test results taken from paper PMC10331961.

The chains behind the UniProt entries cited, without tags or fusion partners. Residues count along the entry.
UniProt P42224, 1-746: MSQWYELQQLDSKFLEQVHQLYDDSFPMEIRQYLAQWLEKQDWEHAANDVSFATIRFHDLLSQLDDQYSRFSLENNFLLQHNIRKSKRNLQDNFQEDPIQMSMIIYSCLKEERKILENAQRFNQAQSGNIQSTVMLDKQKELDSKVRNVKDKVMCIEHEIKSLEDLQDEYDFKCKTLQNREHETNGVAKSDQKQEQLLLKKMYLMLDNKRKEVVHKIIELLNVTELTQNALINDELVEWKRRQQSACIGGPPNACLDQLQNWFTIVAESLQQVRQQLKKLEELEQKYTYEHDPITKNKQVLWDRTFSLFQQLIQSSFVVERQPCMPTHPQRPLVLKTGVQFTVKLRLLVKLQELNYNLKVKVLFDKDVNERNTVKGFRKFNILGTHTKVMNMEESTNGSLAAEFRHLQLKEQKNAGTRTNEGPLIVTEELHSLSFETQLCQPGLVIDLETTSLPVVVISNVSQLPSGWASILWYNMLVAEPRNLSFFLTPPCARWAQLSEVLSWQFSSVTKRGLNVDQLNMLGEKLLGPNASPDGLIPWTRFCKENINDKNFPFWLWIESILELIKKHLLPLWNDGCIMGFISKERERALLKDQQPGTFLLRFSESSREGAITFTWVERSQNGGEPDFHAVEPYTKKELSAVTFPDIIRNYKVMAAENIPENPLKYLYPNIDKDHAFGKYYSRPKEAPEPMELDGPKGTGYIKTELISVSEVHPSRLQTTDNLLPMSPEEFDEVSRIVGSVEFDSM
UniProt P42224, 1-746 E169A: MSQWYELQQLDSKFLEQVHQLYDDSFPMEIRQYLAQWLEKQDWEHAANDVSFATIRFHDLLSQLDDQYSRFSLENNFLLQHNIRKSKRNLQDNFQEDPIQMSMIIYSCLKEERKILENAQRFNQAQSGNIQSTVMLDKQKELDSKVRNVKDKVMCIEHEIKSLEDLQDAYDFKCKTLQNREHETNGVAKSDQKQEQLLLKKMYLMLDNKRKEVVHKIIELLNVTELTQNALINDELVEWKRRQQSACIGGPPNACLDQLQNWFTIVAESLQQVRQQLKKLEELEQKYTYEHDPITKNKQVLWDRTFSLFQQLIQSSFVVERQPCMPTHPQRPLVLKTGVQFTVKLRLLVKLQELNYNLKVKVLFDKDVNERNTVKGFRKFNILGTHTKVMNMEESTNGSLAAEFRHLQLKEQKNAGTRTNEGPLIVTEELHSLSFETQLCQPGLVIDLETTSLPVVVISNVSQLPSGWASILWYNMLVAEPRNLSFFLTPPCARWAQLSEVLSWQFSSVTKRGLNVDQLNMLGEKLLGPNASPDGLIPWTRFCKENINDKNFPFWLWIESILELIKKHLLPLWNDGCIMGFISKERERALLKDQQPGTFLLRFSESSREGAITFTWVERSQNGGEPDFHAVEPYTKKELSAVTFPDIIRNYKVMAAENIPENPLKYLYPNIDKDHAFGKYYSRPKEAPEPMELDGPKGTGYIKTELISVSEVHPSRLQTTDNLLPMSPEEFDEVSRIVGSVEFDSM

Experiments:
Assay in all cases: EMSA
[1] = target: STAT1alpha WT untagged (human) (UniProt P42224); conditions: IFNg 45 min, less complex than E169A; 4.5 ul whole cell extract + 8.5 ul reaction buffer (composition not given) with 1 ng 33P probe, 5 min on ice (30 min before competition); 4.8% 29:1 acrylamide gel, 4 C; protein in a lysate after overexpression; residues 1-746; label: 33P (Klenow end-fill)
[2] = target: STAT1alpha E169A-GFP (human) (UniProt P42224); conditions: IFNg 45 min, more complex than WT, also after staurosporine; 4.5 ul whole cell extract + 8.5 ul reaction buffer (composition not given) with 1 ng 33P probe, 5 min on ice (30 min before competition); 4.8% 29:1 acrylamide gel, 4 C; protein in a lysate after overexpression; residues 1-746; protein details: C-terminal GFP (pEGFP-N1); label: 33P (Klenow end-fill)
[3] = target: STAT1alpha E169A untagged (human) (UniProt P42224); conditions: IFNg 45 min, more complex than WT; 4.5 ul whole cell extract + 8.5 ul reaction buffer (composition not given) with 1 ng 33P probe, 5 min on ice (30 min before competition); 4.8% 29:1 acrylamide gel, 4 C; protein in a lysate after overexpression; residues 1-746; label: 33P (Klenow end-fill)
[4] = target: STAT1alpha WT-GFP (human) (UniProt P42224); conditions: IFNg 45 min, less complex than E169A; 4.5 ul whole cell extract + 8.5 ul reaction buffer (composition not given) with 1 ng 33P probe, 5 min on ice (30 min before competition); 4.8% 29:1 acrylamide gel, 4 C; protein in a lysate after overexpression; residues 1-746; protein details: C-terminal GFP (pEGFP-N1); label: 33P (Klenow end-fill)

Measured: binding result

CGACATTTCCCGTAAATCTG (double strand) [M67]
binds: [1] | [2] | [3] | [4]

Construct, isoform or probe ends are uncertain for at least one entry. Results from cells or extracts need not show a direct contact.
